Results are given in words; binding and its absence hold for the method and conditions named. In cells and extracts the contact can be indirect. For some of these results: A result given as binding can be weak or reduced; the word gives no strength.
T1: CeHop (STI-1) (C. elegans (endogenous in wild-type animals)) (UniProt O16259)
T1 sequence: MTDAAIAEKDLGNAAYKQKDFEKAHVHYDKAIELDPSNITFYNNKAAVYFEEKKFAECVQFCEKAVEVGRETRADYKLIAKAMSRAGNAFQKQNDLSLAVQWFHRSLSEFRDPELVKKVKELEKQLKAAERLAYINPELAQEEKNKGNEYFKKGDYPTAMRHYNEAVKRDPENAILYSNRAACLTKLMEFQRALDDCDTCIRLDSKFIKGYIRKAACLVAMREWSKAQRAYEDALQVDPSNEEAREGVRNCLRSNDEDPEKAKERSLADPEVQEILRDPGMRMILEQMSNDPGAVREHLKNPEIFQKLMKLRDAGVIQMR

B1: CeHop (STI-1) (protein, UniProt O16259 1-320)
chain: T1 sequence
B2: UNC-45 (protein, UniProt G5EG62 1-961)
chain: MVARVQTAEEIRDEGNAAVKDQDYIKADELYTEALQLTTDEDKALRPVLYRNRAMARLKRDDFEGAQSDCTKALEFDGADVKALFRRSLAREQLGNVGPAFQDAKEALRLSPNDKGIVEVLQRLVKANNDKIKQTTSLANKVTDMEKLAFRGEAKDTEQKMTALNNLLVLCRESESGATGVWNQGALVPFVLNLINDASENEEVTVTAIRILDETIKNSVRCMKFLAMHDPDGPKSVRFVCRLMCKKSTKDFVDATGILVQRVFNAMAKMDRQKEMKPDPEVAEANKIWIIRVLLELQEMLQDPKVGAVQRETCIDLFLKNLMHMDGGIPRGWSWKFVEERGLLALLDVASQIPELCEYPVSAETRQHVAICLQRLEEDMVFDTKRTIFKEKVDMFFNALISRCTNDDEGHKYRIKLSCFLITMLQGPVDIGINLITNDQLTPIMLEMAASQDHLMQGIAAELIVATVSKHERAINMLKVGIPVLRALYDSEDPTVKVRALVGLCKIGAAGGDDISKATMKEEAVISLAKTCKKFLLETEKYSVDIRRYACEGLSYLSLDADVKEWIVDDSLLLKALVLLAKKAGALCVYTLATIYANLSNAFEKPKVDEEMVKLAQFAKHHVPETHPKDTEEYVEKRVRALVEEGAVPACVAVSKTESKNALELIARSLLAFAEYEDLRGRIIAEGGTVLCLRLTKEASGEGKIKAGHAIAKLGAKADPMISFPGQRAYEVVKPLCDLLHPDVEGKANYDSLLTLTNLASVSDSIRGRILKEKAIPKIEEFWFMTDHEHLRAAAAELLLNLLFFEKFYEETVAPGTDRLKLWVLYSAEVEEERLSRASAAGFAILTEDENACARIMDEIKSWPEVFKDIAMHEDAETQRRGLMGIANIMHSSNKLCSEIVSSEVFRVLVAVTKLGTINQERAGSTEQAKRGLEAAEKFGLIKATDREIYERENQMSTIQE

Legend:
[1] = molecular target: T1, CeHop (STI-1) (C. elegans (endogenous in wild-type animals)); experiment: co-IP; total lysate of age-synchronized wild-type C. elegans in RIPA buffer with protease inhibitors, 4°C; anti-CeHop or anti-CeAha1 antibodies, Protein A/G PLUS-Agarose beads, three washes in RIPA buffer; western blot with anti-CeHop, anti-CeAha1, anti-CeHsp90 or anti-UNC-45 antibodies
[2] = molecular target: CeAha1 (C01G10.8) (C. elegans (endogenous in wild-type animals)) (UniProt Q93168); experiment: as above

Row | Molecule | binding [1] | binding [2]
1 | CeAha1 (C01G10.8) (from UniProt Q93168) | no binding | –
2 | CeHsp90 (DAF-21) (from UniProt Q18688 1-702) | – | binds
3 | B1 | – | no binding
4 | B2 | – | no binding

— PMC4428482
